Assay results as given in the supplement of paper PMC3334620.
Whole data set: some 33,000 sequences, median “E-score (-0.5 to 0.5)” near -0.016, cut for the highest 2% near 0.3. The list shows a part of the results.

target: T1, Yer184c (UniProt P39961); assay: PBM E-score (8-mer binding enrichment) (E-score (-0.5 to 0.5)); higher = stronger / more preferred TF binding; conditions: protein concentration: 100 nM; construct: GST-full length
T1 sequence: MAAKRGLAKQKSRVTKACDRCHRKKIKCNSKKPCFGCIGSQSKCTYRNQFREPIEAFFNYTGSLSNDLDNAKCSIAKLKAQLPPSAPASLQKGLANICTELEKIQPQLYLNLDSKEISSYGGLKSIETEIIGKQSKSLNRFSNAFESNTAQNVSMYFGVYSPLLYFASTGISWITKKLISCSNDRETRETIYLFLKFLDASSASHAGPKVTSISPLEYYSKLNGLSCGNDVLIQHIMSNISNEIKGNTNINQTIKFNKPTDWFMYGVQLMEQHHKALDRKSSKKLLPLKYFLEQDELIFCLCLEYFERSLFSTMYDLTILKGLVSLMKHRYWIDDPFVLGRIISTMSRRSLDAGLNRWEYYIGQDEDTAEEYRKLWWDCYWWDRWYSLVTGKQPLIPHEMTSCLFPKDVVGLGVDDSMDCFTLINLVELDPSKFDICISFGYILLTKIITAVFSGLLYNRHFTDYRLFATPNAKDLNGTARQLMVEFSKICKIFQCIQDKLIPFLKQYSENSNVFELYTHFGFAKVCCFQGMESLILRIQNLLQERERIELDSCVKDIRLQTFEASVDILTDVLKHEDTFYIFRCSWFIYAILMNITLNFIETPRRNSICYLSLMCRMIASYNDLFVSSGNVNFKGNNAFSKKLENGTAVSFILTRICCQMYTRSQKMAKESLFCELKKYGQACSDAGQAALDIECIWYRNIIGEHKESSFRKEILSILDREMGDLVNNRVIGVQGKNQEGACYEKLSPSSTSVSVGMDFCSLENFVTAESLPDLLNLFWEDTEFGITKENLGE
How it was run: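 GST-tagged yeast TFs (full-length or DNA-binding domain) were made by PURExpress in vitro transcription/translation and applied at about 100-200 nM to universal all-10-mer Agilent arrays. The arrays were made double-stranded by primer extension, on fresh or once-stripped slides. Bound protein was detected with fluorescent anti-GST, and scans were normalised with masliner. Each ungapped eight-base word, pooled with its reverse complement, received an E-score (modified Wilcoxon-Mann-Whitney statistic) from the Universal PBM Analysis Suite.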

Sequence | PBM E-score
TTCCAGAA | 0.185
CTTACCCA | -0.149
CTGCAATA | 0.111
AGGATCAG | -0.161
GAGATACA | 0.243
ACTTCAGC | -0.0952
GGATTACC | 0.0944
TGTGACAA | 0.0343
GATAGGAA | 0.0411
AAGCGTGG | -0.138
AGAACGCT | -0.202
CCAATACG | -0.127
GACACGGA | 0.277
AAGAAATT | 0.346
GACCTACA | -0.115
GATACAAA | 0.174
AAAGACGT | 0.0193
CATGGTAG | -0.188
CAGCGGGG | -0.121
ACAGCAAC | 0.197
GTTTCCTA | 0.0325
ATCCTAAG | -0.0922

Sequence | PBM E-score
AAAACGGA | 0.205
CGTATCAC | -0.102
CATTGTAC | -0.0961
GATGGAAC | 0.0222
GCCTAGTA | -0.0825
AGAGTTAC | -0.149
CATTATAA | 0.178
AATGTTTG | -0.0449
AAGCATAG | -0.161
ACAGTTGG | -0.127
CATCATAC | 0.224
GACTGAGC | -0.166
ATTATCGA | 0.0479
GGGGTCGA | -0.22
ATATCGAG | 0.0115
ACGAAGCA | -0.13
AATGCTCT | -0.167
CCCTCCTA | -0.122
GCAAATAC | -0.0215
GAGGGTCA | -0.132
GTACATGA | -0.0374
CTGGCATA | -0.00554

Sequence | PBM E-score
TCTAGTCA | -0.0786
CACCACGC | -0.284
CAACGAGG | -0.116
CATAAGCC | -0.0497
CCGCGGTA | 0.345
CAACGAGA | 0.0677
GCTCTTAC | 0.0833
TGCTCAAA | 0.0714
CAATATTG | 0.178
AGATTCAA | 0.137
CGGGGCCC | 0.0621
AATTGTCA | 0.0273
ACCGATTG | 0.191
TAGACAGA | 0.063
AACATGCT | -0.045
GTAACGAA | 0.123
CCCATACG | -0.26
CGTATGCA | 0.00517
CAGCCAGA | -0.0598
GAAAGCTC | -0.0804
AAAAGAGT | -0.0099
AGAGAGGC | -0.282

Sequence | PBM E-score
CTTGATCC | -0.0455
AAATGGTA | 0.0972
AAAATGCC | 0.161
CCTTAGAA | -0.0538
GTTCACAA | 0.144
ACTGATAC | -0.0357
CGGAAGGA | 0.23
ATTGACAC | -0.158
GCTCGCCC | -0.103
AAATCTGC | -0.0007
ATGGTTCA | 0.0406
CTAGCATA | -0.00397
GATAACTA | 0.0562
AACCCGTA | -0.0462
AAGGAGTC | -0.165
CTGAGCGC | -0.0621
CGTCCGGC | 0.296
CCGGTTCA | 0.0944
AAACCGGT | 0.216
GCGGTCCA | -0.116
